The series has as its target ERRα (hypothalamic nuclear extract) (Mus musculus) (UniProt O08580). As to the kind of experiment: EMSA supershift. The note with it: anti-ERRα antibody, complex I decreased, supershift band seen; EMSA: 10 mM Tris pH 7.5, 50 mM NaCl, 2.5 mM MgCl2, 0.5 mM DTT, 4% glycerol, 2 µg poly(dI:dC), 1 pmol probe, 20 µl, room temperature 15 min; 5% polyacrylamide gel; protein in an extract; label: 32P 5' end label (T4 PNK). A general note: Mobility shift assays separate free from complexed probe on a gel.

Sequences of proteins named here, by UniProt entry; tags and fusion partners are left off. A change or cut given only in a name is not applied to a line headed by its entry.
UniProt O08580: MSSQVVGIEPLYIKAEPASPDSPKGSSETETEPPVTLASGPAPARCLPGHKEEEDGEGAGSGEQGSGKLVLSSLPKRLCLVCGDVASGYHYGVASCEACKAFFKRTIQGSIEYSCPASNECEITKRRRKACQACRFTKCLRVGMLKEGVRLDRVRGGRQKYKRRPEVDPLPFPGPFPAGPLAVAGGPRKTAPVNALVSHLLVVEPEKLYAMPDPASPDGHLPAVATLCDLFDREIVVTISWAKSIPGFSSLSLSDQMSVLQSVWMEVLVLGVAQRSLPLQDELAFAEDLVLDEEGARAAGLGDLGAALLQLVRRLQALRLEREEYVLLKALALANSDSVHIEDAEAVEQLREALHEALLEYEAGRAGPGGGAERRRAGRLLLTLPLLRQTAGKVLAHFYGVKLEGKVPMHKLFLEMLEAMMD

Construct, isoform or probe ends are uncertain for at least one entry. At least one result comes from cells or an extract, where the contact may be indirect.

With “GCCCCTGACCTTCCCGG / CCGGGAAGGTCAGGGC [GS-ERRα (SCT promoter ERE-half site oligo)]”, the binding result is reported as “binds”.

Source of the values: article PMC3382582.
